Measurements reported in PubChem BioAssay AID1671195 (Yale University, 2021)

- Screen: 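Regulators of LDL receptor activity judged by labelled LDL uptake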 (primary screen)
- Cell system: human Huh7 hepatoma cells
- Reagent: siRNA pool against human genes, 18 nM
- Time to read-out: about 2 to 2.5 days of knockdown, then 8 h LDL uptake
- Treatment: DiI-labelled LDL at 30 µg/ml for 8 h, in lipoprotein-deficient serum medium
- Read-out: 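Fluorescent LDL signal imaged in cells, scaled to the plate median, robust z-score for each replicate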
- Direction: robust z-score: higher = more LDL uptake after knockdown
- Active means: 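a gene counts as active if at least two replicate z-scores exceed ±2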
Shown is an unselected part of about 22,000 reagents tested. In the full data, about 1,510 (6.9%) got an active call. 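Active includes knockdowns raising or lowering LDL uptake; positive z-scores mean more uptake, negative mean less.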 The numbers tell different reagents against one gene apart. Reagent sequences are not shown.

Target gene,pool no.,"robust z-score, replicate 1","robust z-score, replicate 2","robust z-score, replicate 3",outcome
GPHRB (GeneID 51463),1,0.314,-0.62,0.0806,inactive
DRAIC (GeneID 145837),1,0.0188,0.842,0.015,inactive
RPL23AP8 (GeneID 641614),1,0.386,0.384,0.448,inactive
LCTL (GeneID 197021),1,1.1,-0.0816,-0.232,inactive
WHR1 (GeneID 8859),1,-0.158,0.38,-0.561,inactive
PTS (GeneID 5805),1,0.0792,-0.23,-0.192,inactive
KAZN (GeneID 23254),1,-0.166,0.205,-0.251,inactive
KAZN (GeneID 23254),2,-0.194,-0.789,0.461,inactive
SLC10A4 (GeneID 201780),1,1.41,0.497,0.736,inactive
LRATD2 (GeneID 157638),1,-0.192,0.212,-0.349,inactive
BIN3-IT1 (GeneID 80094),1,-0.291,-0.162,-0.07,inactive
LOC134541 (retired record) (GeneID 134541),1,-1.53,0.246,0.0384,inactive
CCNL1 (GeneID 57018),1,-0.174,0.0536,-0.78,inactive
LOC440070 (retired record) (GeneID 440070),1,-0.203,-0.128,-0.666,inactive
LOC440092 (retired record) (GeneID 440092),1,-1.89,-1.67,-1.77,inactive
OR2T10 (GeneID 127069),1,0.839,0.198,-1,inactive
GPKOW (GeneID 27238),1,-1.07,0.511,-1,inactive
COL5A2 (GeneID 1290),1,0.118,-0.885,-0.716,inactive
KLHL9 (GeneID 55958),1,-0.353,-1.34,-1.63,inactive
ZNF564 (GeneID 163050),1,-1.34,-1.66,-1.32,inactive
BIRC3 (GeneID 330),1,0.691,-0.0187,0.128,inactive
KLRF1 (GeneID 51348),1,0.989,0.498,1.96,inactive
B3GAT1 (GeneID 27087),1,-0.0541,0.225,0.0413,inactive
CPN1 (GeneID 1369),1,0.602,0.107,-2.46,inactive
DET1 (GeneID 55070),1,0.866,-0.101,1.43,inactive
OR51B4 (GeneID 79339),1,1.89,0.632,1.21,inactive

The list goes on, starting with the last 5 of the part before.
Target gene,pool no.,"robust z-score, replicate 1","robust z-score, replicate 2","robust z-score, replicate 3",outcome
KLRF1 (GeneID 51348),1,0.989,0.498,1.96,inactive
B3GAT1 (GeneID 27087),1,-0.0541,0.225,0.0413,inactive
CPN1 (GeneID 1369),1,0.602,0.107,-2.46,inactive
DET1 (GeneID 55070),1,0.866,-0.101,1.43,inactive
OR51B4 (GeneID 79339),1,1.89,0.632,1.21,inactive
RASL11B (GeneID 65997),1,-0.111,0.809,0.487,inactive
SIX3 (GeneID 6496),1,-0.342,-0.942,-0.906,inactive
RPL36AL (GeneID 6166),1,-0.705,-0.727,-0.999,inactive
POU5F2 (GeneID 134187),1,0.796,-0.277,1.19,inactive
SMPX (GeneID 23676),1,-1.93,-1.15,0.00946,inactive
UBQLN2 (GeneID 29978),1,1.41,1.34,-2.07,inactive
ADCY1 (GeneID 107),1,-0.424,-0.921,-1.16,inactive
SPINK2 (GeneID 6691),1,1.23,0.94,1.24,inactive
PLAC9P1 (GeneID 389033),1,-1.63,-2.09,-1.88,inactive
CCL11 (GeneID 6356),1,-0.901,-0.433,-0.307,inactive
ADAM20 (GeneID 8748),1,-0.141,-0.281,-0.116,inactive
PDIA4 (GeneID 9601),1,-0.0723,0.241,-0.278,inactive
STK17B (GeneID 9262),1,-1.58,-1.56,-2,inactive
PMS1 (GeneID 5378),1,-1.62,-1.12,-1.08,inactive
PPM1H (GeneID 57460),1,-1.25,-0.401,-0.403,inactive
SNTG2 (GeneID 54221),1,0.374,1.11,0.995,inactive
SCAPER (GeneID 49855),1,0.875,-1.06,0.417,inactive
CLSTN3 (GeneID 9746),1,-0.787,-0.0115,-1.08,inactive
KIF16B (GeneID 55614),1,0.203,-1.11,0.209,inactive
HSPD1 (GeneID 3329),1,-0.0808,0.762,-0.207,inactive
